# Test system: T1, Siglec-2 expressed on intact Burkitt's lymphoma (BL) Daudi cells
# T1 construct: host or cells: BL Daudi cells
# Assay: STD NMR binding to intact BL Daudi cells
# Design: species or system human
# Details: bound to BL Daudi cells, STDD
# Text: Anti-human Siglec-1 (CD169)-FITC, (clone: 7-239); Siglec-3 (CD33)-FITC, (clone: AC104.3E3); Siglec-5 (CD170)-FITC (clone: 1A5); Siglec-7 (CD328)-VioBlue, (clone: REA214); Siglec-8-FITC, (clone: 7C9) and relevant isotype controls were purchased from Miltenyi Biotech (Bergisch Gladbach, Germany, UE). Mouse anti-human Siglec-2 (CD22) primary antibody (clone RFB4) and the relevant isotype control (clone 1E2.2) were purchased from Merck Group (Darmstadt, Germany, UE). The rat anti-mouse secondary antibody BV421 conjugated was purchased from BD Biosciences (San Jose, CA, USA). Rabbit anti-human Siglec-4 (Myelin Associated Glycoprotein, MAG) was purchased from LifeSpan BioSciences (Seattle, WA, USA). The Donkey anti-rabbit secondary antibody (Clone Poly4064)-BV421 conjugated was purchased from Biolegend (San Diego, CA, USA). Anti-human Siglec-5/Siglec-14-APC (Clone 194128), Siglec-6 (CD327)-APC (Clone 767329), Siglec-9-FITC (Clone 191240); Goat Siglec-10-PE Affinity Purified PAb, Goat Siglec-11-PE Affinity Purified PAb, Goat IgG-PE control, Siglec-16-APC (Clone 706022), and relevant isotypes were purchased from R&D Systems (Minneapolis, MN, USA). BL Daudi and HEK293T cells were incubated with the antibodies for one hour at 4 °C in PBS supplemented with 1% FCS (PBS-FBS) at a ratio of 1 μg of antibody per 1 × 10^6 cells. The cells were washed three times and then suspended in 1 mL of PBS-FBS buffer prior to flow cytometry analysis. Propidium iodide was used at a concentration of 10 ug/mL to differentiate viable from non-viable cells. Secondary antibodies were used according to the suppliers’ instructions. A CyAn ADP Flow Cytometer and Kaluza Flow Cytometry software were used for flow cytometric analysis (Beckman Coulter, Brea, CA, USA). For sorting the BL Daudi cells into Siglec-2^low and Siglec-2^high fractions, antibody staining was achieved as described above. […] Cells were sorted into low and high expressing Siglec-2 groups based on their fluorescence intensity, using MoFlo XDP (Beckman Coulter, CA, USA). […]
smiles,measurement,value
"COC1(C(=O)O)CC(NC(=O)c2cccc([N+](=O)[O-])c2)C(NC(C)=O)C(C(O)C(O)CNC(=O)c2ccc(-c3ccccc3)cc2)O1 (stereo not drawn) [compound 3, 9-biphenylcarboxamido-4-meta-nitrophenyl-carboxamido-Neu5Acα2Me]",relative STD NMR effect of H3 equatorial proton (H3eq),122%
same,relative STD NMR effect of H^o proton (ring A),94%
same,relative STD NMR effect of H^p proton (ring A),103%

# From article PMC5093622, “Structural characterisation of high affinity Siglec-2 (CD22) ligands in complex with whole Burkitt’s lymphoma (BL) Daudi cells by NMR spectroscopy” (Scientific Reports, 2016)
